# Test results taken from PubChem BioAssay.
# The shares of active, inactive and inconclusive entries below differ from those in the screen. Where the call is inconclusive, the potency comes from a doubtful curve fit. Activity calls are given as the source filed them. Cut-off not given; nearly all actives show AC50 up to about 27 µM.
# Assay: growth inhibition of DIPG glioma cells, dose response, cell-based, JHH-DIPG-1, MIPE4.0, CellTiter-Glo, qHTS (AID 1347062);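 on AC50: cells exposed to compound for two days before readout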
# Details: JHH-DIPG-1 viability, CellTiter-Glo ATP luminescence
SMILES,AC50,outcome
COC1=C[C@@H]2[C@@H]3Cc4ccc(OC)c(O)c4[C@]2(CCN3C)CC1=O,inconclusive: 4.69 µM [cytotoxic],
CCC1(c2ccc(N)cc2)CCC(=O)NC1=O (centres undefined),inconclusive: 0.935 µM [cytotoxic],
COc1ccc2c(c[n+](C)c3c4cc5c(cc4ccc23)OCO5)c1OC,active: 4.18 µM,
C[C@]12CC[C@H]3[C@@H](CCC4=CC(=O)CC[C@@]43C)[C@@H]1CC[C@@H]2OC(=O)CCC1CCCC1,,inactive
O=c1[nH]c2ccccc2n1C1CCN(Cc2ccc(-c3[nH]c4cc5ncnc5cc4nc3-c3ccccc3)cc2)CC1,inconclusive: 10.5 µM [cytotoxic],
CC(C)(O)C(=O)Nc1ccc([N+](=O)[O-])c(C(F)(F)F)c1,inconclusive: 37.2 µM [cytotoxic],
C[C@]12CC[C@H]3[C@@H](CCC4=CC(=O)CC[C@@H]43)[C@@H]1CC[C@@H]2OC(=O)CCc1ccccc1,,inactive
CCNC(=O)CC1N=C(c2ccc(Cl)cc2)c2cc(OC)ccc2-n2c(C)nnc21 (centres undefined),inconclusive: 10.5 µM [cytotoxic],
COC[C@H]1OC(=O)c2coc3c2[C@@]1(C)C1=C(C3=O)C2CCC(=O)[C@@]2(C)C[C@H]1OC(C)=O (some centres undefined),inconclusive: 9.35 µM [cytotoxic],
CCOC(=O)Nc1ccc(NCc2ccc(F)cc2)cc1N,inconclusive: 0.00105 µM,
CCNC(=O)C[C@@H]1N=C(c2ccc(Cl)cc2)c2cc(OC)ccc2-n2c(C)nnc21,active: 7.43 µM,
Cn1c(CCCC(=O)O)nc2cc(N(CCCl)CCCl)ccc21,inconclusive: 37.2 µM [cytotoxic],
Cc1c(C(=O)Nc2cccc(C(F)(F)F)c2)cc(-c2ccccc2)n1CCCN1CCOCC1,inconclusive: 23.5 µM [cytotoxic],
Cc1cccc(C)c1NC(=O)CN1CCCC1=O,,inactive
Cc1sc2c(c1C)C(c1ccc(Cl)cc1)=N[C@@H](CC(=O)OC(C)(C)C)c1nnc(C)n1-2,inconclusive: 0.132 µM [cytotoxic],
O=C(N[C@@H](COc1ccc2[nH]c(=O)[nH]c2c1)c1ccccc1)c1cccn(Cc2ccc(F)c(F)c2)c1=O,inconclusive: 2.35 µM [cytotoxic],
CCN(CC)C(=O)c1ccc(C2=CC3(CCNCC3)Oc3cccc(O)c32)cc1,inconclusive: 14.8 µM [cytotoxic],
CN(C)CCN(C)CCc1ccc(Cl)c(Cl)c1,,inactive
COc1ccc(C(=O)c2c(C)n(CCN3CCOCC3)c3cc(I)ccc23)cc1,inconclusive: 37.2 µM [cytotoxic],
O=C(O)C(=O)c1cn(Cc2ccccc2)c2ccc(-c3ccc(OC(F)(F)F)cc3)cc12,,inactive
COC[C@H]1OC(=O)c2coc3c2[C@@]1(C)C1=C(C3=O)[C@@H]2CC[C@H](O)[C@@]2(C)C[C@H]1OC(C)=O,inconclusive: 3.32 µM [cytotoxic],
Cn1cc(C2=C(c3cn(C4CCN(Cc5ccccn5)CC4)c4ccccc34)C(=O)NC2=O)c2ccccc21,inconclusive: 5.26 µM [cytotoxic],
COC1(CS(=O)c2ccccc2)CCN(CCc2c[nH]c3ccc(F)cc23)CC1 (centres undefined),,inactive
CO/C1=C/C(C)=C\[C@@H](C)[C@@H](O)[C@@H](C)C/C(C)=C\C=C/[C@H](OC)[C@@H]([C@@H](C)[C@@H](O)[C@H](C)[C@@]2(O)C[C@@H](O)[C@H](C)[C@@H](C(C)C)O2)OC1=O,active: 11.8 µM,
CCCCCC[C@H]1C(=O)O[C@H](C)[C@H](NC(=O)c2cccc(NC=O)c2O)C(=O)O[C@@H](C)[C@@H]1OC(=O)CC(C)C,inconclusive: 0.0662 µM [cytotoxic],
CC(C)CC(N(C)C)C1(c2ccc(Cl)cc2)CCC1 (centres undefined),,inactive
CC(O)(CS(=O)(=O)c1ccc(F)cc1)C(=O)Nc1ccc(C#N)c(C(F)(F)F)c1 (centres undefined),active: 9.35 µM,
CN1[C@@H]2CC(O)C[C@H]1[C@@H]1O[C@@H]12 (some centres undefined),inconclusive: 37.2 µM [cytotoxic],
CO[C@H]1CCC(O[C@H]2C[C@H]([C@]3(C)CC[C@]4(C[C@H](O)[C@@H](C)[C@@H]([C@@H](C)/C=C(\C)C(=O)[C@H](C)C[C@H](C)C(=O)O)O4)O3)O[C@]3(O[C@@H]([C@H]4O[C@@](O)(CO)[C@H](C)C[C@@H]4C)C[C@@H]3C)[C@@H]2C)O[C@@H]1C (some centres undefined),active: 1.48 µM,

# By substructure, the compounds so far with an aryl methoxy group
SMILES,AC50,outcome
COC1=C[C@@H]2[C@@H]3Cc4ccc(OC)c(O)c4[C@]2(CCN3C)CC1=O,inconclusive: 4.69 µM [cytotoxic],
COc1ccc2c(c[n+](C)c3c4cc5c(cc4ccc23)OCO5)c1OC,active: 4.18 µM,
CCNC(=O)CC1N=C(c2ccc(Cl)cc2)c2cc(OC)ccc2-n2c(C)nnc21 (centres undefined),inconclusive: 10.5 µM [cytotoxic],
CCNC(=O)C[C@@H]1N=C(c2ccc(Cl)cc2)c2cc(OC)ccc2-n2c(C)nnc21,active: 7.43 µM,
COc1ccc(C(=O)c2c(C)n(CCN3CCOCC3)c3cc(I)ccc23)cc1,inconclusive: 37.2 µM [cytotoxic],
